Results reported in PubChem BioAssay AID2685 (National Center for Advancing Translational Sciences (NCATS), 2010).
In all, about 320,000 compounds went through this assay and about 2,100 (0.66%) were called active. Calls follow the shape of the dose curve; as a rule, active = well fitted inhibition curve with a large enough effect in the signal ratio, with a control signal flat (not every such curve was filed as active); inconclusive = small, poorly fitted or top-dose-only effect, or effect the other way, or a change in a side signal; inactive = flat fitted curve, though single readings scatter; the % refers to the signal ratio. Inconclusive means that the source gave no clear call. Potencies beside an inconclusive call are fits to weak or partial responses and may not hold up.

Test: qHTS Assay for Lipid Storage Modulators in Drosophila S3 Cells
Conditions: BODIPY lipid droplet fluorescence, 18-24 h, cells fed with added oleic acid; lipid storage change, negative = inhibition: at 46.1 µM (top of the series) unless noted
Summary of the method: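 Laser-scanning cytometry quantifies lipid droplet accumulation (500–530 nm total intensity; droplet/cell object ratio) in oleic acid-fed (400 uM added) Drosophila S3 cells treated with a concentration series. 20 uM Triacsin C defined 100% inhibition.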
% is scaled to controls: 0 for no effect and ±100 for the full control effect; potency is read from the fitted curve at half-maximal effect.

Lipid storage change, negative = inhibition, inconclusive:
Cc1cc(C)nc(Nc2ccc(N3CCOCC3)cc2)n1 54.6%
CC1COc2ccccc2N1C(=O)c1ccc(Cl)nc1 (configuration not stated) -29.4% [at 9.22 µM]
O=C(CSc1nnc(COc2ccc(F)cc2)o1)N1CCCCC1 0.961%
N#Cc1c(N)c(C(=O)c2ccc(Br)cc2)n2c1CCC2 17.2%
COc1ccccc1N1CC(C(=O)Nc2ccc(N3CCOCC3)cc2)CC1=O (configuration not stated) -11.5%
COc1cc(C(N)=O)cc(Cl)c1OCc1ccccc1 2.83%
COc1ccc(S(=O)(=O)Cc2ccc(C(=O)NCc3ccccc3OC)o2)cc1 -42.4%
O=C(CCCNS(=O)(=O)c1ccc(F)cc1)Nc1ccc(F)cc1 5.4%
O=C(O)c1ccccc1Nc1cccc(OCc2ccc3ccccc3n2)c1 25.9%
Cc1[nH]c2ccc(F)cc2c1CCN1C(=O)OC(C)(C)C1(C)O (configuration not stated) -26.7%
COc1ccc(CCNC(=O)CC(NC(=O)c2ccccc2Cl)c2ccccc2)cc1 (configuration not stated) -4.61%
COc1ccccc1NC(=O)C1=C(C)Nc2nnnn2C1c1cccc(Br)c1 (configuration not stated) 16.1%
COc1ccccc1C(=O)NCC(=O)OCC(=O)c1cccc2ccccc12

Entries above that contain four or more nitrogen atoms (2):
Lipid storage change, negative = inhibition, inconclusive:
Cc1cc(C)nc(Nc2ccc(N3CCOCC3)cc2)n1 54.6%
COc1ccccc1NC(=O)C1=C(C)Nc2nnnn2C1c1cccc(Br)c1 (configuration not stated) 16.1%

Following part.

Potency, inconclusive:
O=C1CSC(=S)N1c1ccc(O)cc1 6.51 µM [falling, single point]
Cc1cc(C(=O)Nc2nnc(C3CC3)s2)c(C)s1 23.1 µM [falling, single point]
Cn1cnnc1SCC(=O)Nc1ccc(S(=O)(=O)N2CCCC2)cc1 29.1 µM [falling, single point]
O=C(O)/C=C/C(=O)NC1CCS(=O)(=O)C1 (configuration not stated) 6.51 µM [falling, single point]
CN(C)S(=O)(=O)c1ccc(Cl)c(C(=O)NNC(=O)Cc2nc3ccccc3n2C)c1 2.91 µM [falling, single point]
O=C(Nc1nc2ccccc2[nH]1)C1CC(=O)N(c2ccc3c(c2)OCCO3)C1 (configuration not stated) 0.0058 µM [activator, full curve, poor fit]
COC(=O)c1ccc(CN(c2ccccc2Cl)S(C)(=O)=O)cc1 6.51 µM [rising, single point]
CCOC(=O)c1csc(NC(=O)c2ccc(OCC)cc2)n1 0.116 µM [rising, full curve, poor fit]
CCOC(=O)c1cnc(-c2ccccc2)nc1Oc1cccc(Cl)c1 20.6 µM [activator, single point]
